Experimental data reported in paper PMC10590331.

Protein sequences, listed by entry. Tags and fused reporters are not part of them. Residues count along the entry.
UniProt P02769, 25-607: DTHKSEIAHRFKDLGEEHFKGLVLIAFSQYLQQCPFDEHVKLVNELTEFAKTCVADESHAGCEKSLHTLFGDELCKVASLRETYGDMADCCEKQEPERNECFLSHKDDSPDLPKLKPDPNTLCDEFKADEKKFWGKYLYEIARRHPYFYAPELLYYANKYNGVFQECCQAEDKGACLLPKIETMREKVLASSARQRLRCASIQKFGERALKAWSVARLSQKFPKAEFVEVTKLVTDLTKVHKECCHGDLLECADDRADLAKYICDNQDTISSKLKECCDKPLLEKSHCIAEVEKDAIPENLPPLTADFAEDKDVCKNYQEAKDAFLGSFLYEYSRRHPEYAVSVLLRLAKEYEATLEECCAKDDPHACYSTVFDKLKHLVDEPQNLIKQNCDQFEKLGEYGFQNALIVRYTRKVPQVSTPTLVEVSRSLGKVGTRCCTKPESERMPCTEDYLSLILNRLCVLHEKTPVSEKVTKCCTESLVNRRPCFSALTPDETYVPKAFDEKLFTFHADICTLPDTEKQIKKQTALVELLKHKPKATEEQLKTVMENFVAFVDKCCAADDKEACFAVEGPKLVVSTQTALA

Columns and labels:
[1] = biological target: BSA (UniProt P02769); experiment: fluorescence anisotropy; details: 10 mM Tris pH 8, 60 mM NaCl, 0.2 mM MgCl2 (5 mM DTT when reducing), 900 nM probe, 0-80 µM protein, 30 min at room temperature; commercial protein; label: 5' TAMRA on forward strand
[2] = biological target: T1, NifA 2C-DBD (DNA binding domain with upstream Cys pair) (Gluconacetobacter diazotrophicus) (UniProt A9H5T0); experiment: competition with a labelled probe; details: competes with labeled nifH-UAS (900 nM), 50 µM protein; 10 mM Tris pH 8, 60 mM NaCl, 0.2 mM MgCl2 (5 mM DTT when reducing), 900 nM probe, 0-80 µM protein, 30 min at room temperature; recombinant protein; residues 520-581
T1 sequence (looked up): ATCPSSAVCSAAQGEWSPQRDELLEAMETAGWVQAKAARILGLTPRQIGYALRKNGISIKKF

[3] = biological target: T2, NifA NC-DBD (DNA binding domain without Cys pair) (Gluconacetobacter diazotrophicus) (UniProt A9H5T0); experiment: competition with a labelled probe; details: competes with labeled nifH-UAS (900 nM), 50 µM protein; 10 mM Tris pH 8, 60 mM NaCl, 0.2 mM MgCl2 (5 mM DTT when reducing), 900 nM probe, 0-80 µM protein, 30 min at room temperature; recombinant protein; residues 530-581
T2 sequence (looked up): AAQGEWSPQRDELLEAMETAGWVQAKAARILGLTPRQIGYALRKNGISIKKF

| Sequence | binding result [1] | binding result [2] | binding result [3] |
| --- | --- | --- | --- |
| CGGTTTTGTCAGGCTTCGCACAAAGCCG (double strand) [nifH-UAS duplex, TAMRA-labeled] | no binding |  |  |
| CGGTTTTGTCAGGCTTCGCACAAAGCCG (double strand) [nifH-UAS duplex, unlabeled competitor] |  | binds | binds |

For part of these data: Negatives hold for the conditions tested. For part of these data: The exact form of at least one protein or probe is not confirmed. For part of these data: At least one verdict was read from the data and is not stated in words by the source. For part of these data: Protein sequences can lack the tags named with them.
